These are yes or no findings as the source states them, for the method shown. For some of these results: Binding seen in cells or lysates may run through a third protein. Some results given as binding are weak or reduced against the parent protein; the word gives no strength. Where a sequence is shown, tags or fusion partners need not be part of it.
How the values were obtained:
Settings in all cases: remark: other sources report otherwise
[1] = target: T1, His-tagged Orc1 (Orc1-His), wild type (S. cerevisiae), P54784; test: pull-down; cleared lysates of 293T cells co-overexpressing Orc1-His, Orc2, Orc3, Orc4, Orc5 with or without Orc6; pulldown by the His tag; 9% SDS-PAGE, Coomassie staining
T1 chain: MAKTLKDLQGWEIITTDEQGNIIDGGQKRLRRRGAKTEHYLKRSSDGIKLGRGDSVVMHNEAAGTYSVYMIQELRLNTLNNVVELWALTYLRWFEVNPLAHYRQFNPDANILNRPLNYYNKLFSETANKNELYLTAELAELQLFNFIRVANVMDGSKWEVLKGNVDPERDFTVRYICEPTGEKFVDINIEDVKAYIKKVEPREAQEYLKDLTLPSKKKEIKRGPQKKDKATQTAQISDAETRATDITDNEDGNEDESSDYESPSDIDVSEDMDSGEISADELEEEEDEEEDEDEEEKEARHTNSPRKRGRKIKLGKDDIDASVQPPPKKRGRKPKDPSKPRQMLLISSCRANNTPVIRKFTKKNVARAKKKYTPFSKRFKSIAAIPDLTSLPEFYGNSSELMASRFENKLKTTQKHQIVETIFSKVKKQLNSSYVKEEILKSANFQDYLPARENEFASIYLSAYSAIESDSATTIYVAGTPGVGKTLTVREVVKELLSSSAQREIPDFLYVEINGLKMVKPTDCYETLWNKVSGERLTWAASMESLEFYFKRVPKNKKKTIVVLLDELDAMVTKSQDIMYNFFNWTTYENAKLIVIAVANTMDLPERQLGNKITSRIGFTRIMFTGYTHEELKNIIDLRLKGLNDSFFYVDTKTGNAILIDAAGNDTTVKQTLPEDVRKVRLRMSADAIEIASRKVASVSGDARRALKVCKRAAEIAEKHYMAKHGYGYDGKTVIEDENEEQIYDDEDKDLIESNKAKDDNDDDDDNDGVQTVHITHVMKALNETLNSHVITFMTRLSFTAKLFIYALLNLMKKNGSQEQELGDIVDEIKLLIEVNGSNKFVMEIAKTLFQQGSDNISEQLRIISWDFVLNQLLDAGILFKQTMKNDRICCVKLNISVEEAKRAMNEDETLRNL

[2] = target: T1, His-tagged Orc1 (Orc1-His), wild type …; test: SEC; Superdex 200 in buffer H/0.2 (200 mM KCl) of the peak fractions after His affinity step and SP Sepharose; fractions on 9% SDS-PAGE, Coomassie; subunits co-expressed in 293T cells
[3] = target: T1, His-tagged Orc1 (Orc1-His), wild type …; test: HisTrap affinity column chromatography; HisTrap column with linear imidazole gradient elution of lysate of 293T cells co-overexpressing His-tagged Orc1 (wild type or mutant) and Orc2/3/4/5/6; fractions on 9% SDS-PAGE, Coomassie
[4] = target: T1, His-tagged Orc1 (Orc1-His), wild type …; test: pull-down; MagneHis beads, 1 h, in lysis buffer (50 mM Hepes-KOH pH 7.6, 0.3% NP-40, 400 mM KCl, 17.5 mM imidazole) with nuclease-treated lysate of 293T cells co-overexpressing Orc1-His and Orc2/3/4/5; five washes, elution with 500 mM imidazole; SDS-PAGE, Coomassie

binding [1]: binds
binding [2]: binds
binding [3]: binds
binding [4]: binds
B1: Orc2, P32833 1-620 (protein)
chain: MLNGEDFVEHNDILSSPAKSRNVTPKRVDPHGERQLRRIHSSKKNLLERISLVGNERKNTSPDPALKPKTPSKAPRKRGRPRKIQEELTDRIKKDEKDTISSKKKRKLDKDTSGNVNEESKTSNNKQVMEKTGIKEKREREKIQVATTTYEDNVTPQTDDNFVSNSPEPPEPATPSKKSLTTNHDFTSPLKQIIMNNLKEYKDSTSPGKLTLSRNFTPTPVPKNKKLYQTSETKSASSFLDTFEGYFDQRKIVRTNAKSRHTMSMAPDVTREEFSLVSNFFNENFQKRPRQKLFEIQKKMFPQYWFELTQGFSLLFYGVGSKRNFLEEFAIDYLSPKIAYSQLAYENELQQNKPVNSIPCLILNGYNPSCNYRDVFKEITDLLVPAELTRSETKYWGNHVILQIQKMIDFYKNQPLDIKLILVVHNLDGPSIRKNTFQTMLSFLSVIRQIAIVASTDHIYAPLLWDNMKAQNYNFVFHDISNFEPSTVESTFQDVMKMGKSDTSSGAEGAKYVLQSLTVNSKKMYKLLIETQMQNMGNLSANTGPKRGTQRTGVELKLFNHLCAADFIASNEIALRSMLREFIEHKMANITKNNSGMEIIWVPYTYAELEKLLKTVLNTL
